Source: PubChem BioAssay AID1487 (National Center for Advancing Translational Sciences (NCATS), 2009)
The other results are listed elsewhere or left out. These are further read-outs of the screen, such as a control signal, another cell line or another target. No call is given for them. The list favours compounds with an active or inconclusive main result. Words in brackets tell the shape of the fitted curve; partial curves, single points and poor fits give uncertain potencies.

Test: qHTS Assay for Modulators of Lamin A Splicing
Conditions: HeLa LMNA splicing GFP/RFP minigene ratio, 48 h
How it was run: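 Read-out is the ratio of GFP to DsRed2 object intensity, acquired by 488 nm laser-scanning cytometry on HeLa lamin A-EGFP minigene reporter cells. Compound incubation 48 hrs at 37 °C in Opti-MEM with 2% FBS; DMSO 0.5% final.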

[1] = measured here: GFP splicing reporter channel
[2] = measured here: RFP viability control channel

SMILES: Cc1cccc(OCC(=O)Nc2ccccc2-c2ccccc2)c1
- AC50 [1]: 15.8 µM [rising, single point]
- AC50 [2]: 22.4 µM [rising, single point]

SMILES: Cc1cc(N2CCN(C/C=C/c3ccccc3)CC2)n2ncnc2n1
- AC50 [1]: 1.26 µM [rising, full curve, poor fit]
- AC50 [2]: 2.82 µM [rising, full curve]

SMILES: CN1CCN(C(=S)c2cn(CCOc3ccccc3)c3ccccc23)CC1
- AC50 [2]: 0.316 µM [falling, partial curve, poor fit]

SMILES: COc1cc2c(cc1OC)C(C)N(C(=O)Cn1ncc3c1-c1cc(C)ccc1OC3)CC2 (stereo unspecified)
- AC50 [2]: 28.2 µM [rising, single point]

SMILES: COc1ccc(C2NC(=S)NC(O)(C(F)(F)F)C2C(=O)c2cccs2)cc1 (stereo unspecified)
- AC50 [1]: 0.2 µM [falling, single point]
- AC50 [2]: 35.5 µM [rising, single point]

SMILES: COc1ccccc1C/C(N)=N/OC(=O)/C=C/c1ccccc1
- AC50 [1]: 0.0178 µM [rising, full curve, poor fit]

SMILES: CN(C)S(=O)(=O)c1cccc(C(=O)N(Cc2ccc(F)cc2)Cc2ccco2)c1
- AC50 [1]: 22.4 µM [rising, single point]
- AC50 [2]: 35.5 µM [rising, single point]

SMILES: Cc1ccc(C)c(N2CCN(S(=O)(=O)c3cc(C(=O)Nc4ccccc4C(F)(F)F)ccc3F)CC2)c1
- AC50 [2]: 5.01 µM [falling, full curve, poor fit]

SMILES: COc1ccc(-n2c(Cc3cccn3C)nnc2SCC(=O)Nc2cc(C)cc(C)c2)cc1
- AC50 [2]: 10 µM [rising, single point]

SMILES: CCOC(=O)c1cc2sccc2n1CC(=O)c1ccc2c(c1)OCCO2
- AC50 [1]: 12.6 µM [rising, single point]

SMILES: O=C(Nc1nnc(-c2ccccc2)s1)c1cc(S(=O)(=O)N2CCOCC2)c(Cl)cc1Cl
- AC50 [2]: 3.55 µM [rising, single point]

SMILES: CCOC(=O)CN1C(=O)N[C@@H](c2ccco2)C(C(=O)OC)=C1C
- AC50 [1]: 2.82 µM [rising, partial curve, poor fit]
- AC50 [2]: 2.51 µM [rising, single point]

SMILES: CN(C)c1ccc(CNC(=O)Cn2c(-c3cccs3)cc3cc(Cl)ccc32)cc1
- AC50 [2]: 0.0794 µM [rising, partial curve]

SMILES: N#Cc1ccccc1Cn1c(=O)n(Cc2ccc(C(=O)NCc3ccco3)cc2)c(=O)c2ccccc21
- AC50 [1]: 14.1 µM [falling, single point]

SMILES: Cn1nnnc1SC1CC(=O)N(c2ccccc2)C1=O (stereo unspecified)
- AC50 [1]: 35.5 µM [falling, single point]
- AC50 [2]: 35.5 µM [falling, single point]
